## Results from one PubChem assay

Data taken from PubChem BioAssay AID1159506, deposited by NCATS (2015).

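Genome-wide siRNA knockdown in TC32 Ewing sarcoma cells, comparing luciferase light from an NR0B1-promoter reporter with a CMV-promoter reporter 48 hours after transfection.
Each siRNA was applied at 20 nM.
A z-score of the log NR0B1-over-CMV signal, less the median of siRNAs with the same seed; more negative means a stronger specific loss of the NR0B1 reporter.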

The strongest results of the screen are mostly left out here.
Sequences are the guide (antisense) strand, without overhang.

| Sequence | target gene | seed-corrected z-score |
|---|---|---|
| `UCUAGAACUUUGACCAUCA` | TTR | 1.249 |
| `UUCUCAACAGCUUCAAUGC` | ARHGAP15 | 0.9565 |
| `AUGAUAACCAUAGUGUCUG` | NXPE4 | 1.655 |
| `UUUUAUAAAAAUCCGGUUC` | IL12A | 0.5892 |
| `UCACGUUCCUGUGCUAAGC` | CCDC66 | -0.7562 |
| `UUUUCAUCCACUACAAUUC` | CHFR | -0.9705 |
| `UCAGCUAACAUGUCCAGAC` | ANP32B | 0.556 |
| `AAUUUGACUCUUGCAGCUU` | ARHGEF34P | -0.1602 |
| `UUAAUGUCAUUUCAAAAGC` | ECHS1 | -0.5264 |
| `UCUCCAAAAUAGUACAAUC` | TPTE2P2 | -0.09531 |
| `AGAAGCAUCACUCUGGGAC` | LCE2A | 0.3084 |
| `UUUUCUUCGAACUGGGCUC` | PGPEP1L | -0.08682 |
| `UAGUUAUCAGGAAAGGGCU` | PIGC | 0.1854 |
| `UCGGUCACAAGGUCUGUGG` | ZNF746 | -1.605 |
| `UCUGCAUCAUGGUUUUCCC` | ROMO1 | -0.3946 |
| `UCUCGAACUAAGAAUAGAC` | SNX17 | -0.1156 |
| `UAUACAUCUGCACAGUCUC` | ANGPT1 | 0.1881 |
| `UAUUGGAAACCCAUUCUCC` | RSPH10B | 0.9634 |
| `UUGCAGUAAAUUCAUUUUC` | GLIPR1L2 | -1.381 |
| `AAAGACACUAACAAGGAGG` | CLEC11A | -1.219 |
| `UGAACUUCGACCAAAUGCC` | ZNF229 | -0.06967 |
| `UGAUUAAUCAGACAAUUGC` | MB | 0.4011 |
| `UUUUUGCAUCUGUAGACUG` | FAM184B | -0.7275 |
| `AUCCGUGUGAAUUACAUCC` | PNLIP | -0.5 |
| `UUGCUGACAAUCUUCACUU` | RANBP10 | 0.2315 |
| `UCAGUGCAAAGGUGGACCC` | PLAC8L1 | 0.6536 |
| `GUAUUUCUGCCAAACCUCU` | NPFF | -0.08029 |
| `UUCUUUCGAAACAUGGGUG` | TMEM185A | -0.5285 |
| `UAAACUAUAAUUGGUCGUC` | ZRANB1 | -0.3881 |
| `UUCCGUGUAAUACUUGUUC` | C3orf67 | 0.4168 |
| `AUCACUCAAACCUUGCUCC` | PDZK1 | -0.2589 |
| `ACAUGUUUUACAGUUGCAG` | MT4 | -1.235 |
| `AUCAAUUAUAUGGUCAACC` | CUL4B | 1.628 |
| `UGAGAUGCUAGCGAAGACC` | CLN3 | 0.7375 |
| `AACUUGUCCAGAAACUCGU` | CHST12 | -0.6755 |
| `UGCAUAUCAACAGAGGAGC` | ZNF786 | -1.281 |
| `UAGACUCACACUGAGAAGU` | TMEM233 | -0.2159 |
| `AAAUGCUCAGCAAAUACGG` | JAGN1 | 0.8577 |
| `UGGUGGAUAAAGACUGUAC` | ACSM1 | -0.1423 |
| `UCGUUUUUCACAGCAGCUG` | RNF213 | 0.3545 |
| `UCGAGUAUGCAGUCGGUGC` | PKDCC | -0.6399 |
| `UGAAUUUACGGAAACGGCC` | DCAF11 | 1.559 |
| `UUCUUGUCGCUGAAUGACC` | GAL | 0.329 |
| `UUACAUCCCAGAGAGUUAC` | NEDD1 | -1.466 |
| `UAAUAGACCGAAGACAAUC` | STAM | 0.00217 |
| `CACCAUGCUAAAGUUGUGG` | FOXI3 | -0.2667 |
| `UAGGUUUAUCUCGGCCUCC` | LOC728573 | -1.245 |
| `UCCUUGUGCAUGACGGUCU` | PIP5K1C | -0.8584 |
| `AAUCUGACCGGAAUCAUGG` | EID2B | -1.228 |
| `UGUACUCUAAGAUCUGCAC` | ZFP82 | -0.518 |
| `UUACUAAUGGUGUCCAUAC` | DTX3L | 0.9036 |
| `UUCACGACCAUGUCAAUCC` | LOC402715 | -1.062 |
| `AGUUUUAUAUCUCAGAACC` | LRRFIP2 | 0.05574 |
| `UAAUCUUCACUCGAUGUAC` | PTBP3 | -1.08 |
| `AGUAUAUUUGAGGUAAUUG` | ZPBP | 0.1342 |
| `AUCUUUAUCUAGUCGUUGC` | ERGIC3 | -0.8065 |
| `UUGGGUACCAGGACUUGCU` | ASCL5 | -0.02479 |
| `UCUCUUCAGCUAGCUGUGC` | DDIT3 | -0.3414 |
| `AAGGUUCUAAGAUGGUACC` | LINC00312 | -0.8525 |
| `AAUGGUACAAAUACUCUGG` | LOC283585 | 0.933 |
| `UGCGUGUAACUGCACAUCC` | ZBTB8OSP2 | -0.04035 |
| `UAGCUAUAUAGAGAAGUCC` | ZMYND12 | -0.8228 |
| `AAAGUAUGCAGAUCGCCUG` | CSF3R | -0.9422 |
| `UUCAAUUAGGCUAACGUAC` | ZKSCAN5 | 0.2037 |
| `UUCCCUGCGGUUAAUUUCC` | KRT34 | -0.1087 |
| `UAAUCGAUACUUUUCAAGC` | RC3H2 | 0.01553 |
| `AUUAGCACACUUCACAUCC` | GRM8 | 0.6154 |
| `UAAGGGCUCGAUCACAGUC` | BIN3 | -1.221 |
| `UUUACAGAGGCAGUUGUUG` | FAM91A3P | 0.5323 |
| `UUUGCCACGUUCCAGAAGG` | SPATA31E2P | -0.5418 |
| `UACGCUGCAAUAUGCAAUG` | TNNI3K | -0.2099 |
| `UAAGGGAAGCAGUAGUCCG` | HHIPL1 | 0.9914 |
| `UAUGAAUCCUCAGAUGUUG` | ZNF713 | 0.5582 |